Data as given in PubChem BioAssay AID1508587 (Peter MacCallum Cancer Centre, 2020)
Shown is one part, drawn at random, of about 1,600 reagents tested. 623 of them (39%) count as active. 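Calls are for each duplex; lactate ratios contain extreme outliers.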 The numbers tell different reagents against one gene apart. Further read-outs or replicates are left out here.

- Assay: 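Knockdowns that add to vemurafenib's cut in melanoma glycolysis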 (follow-up of hits)
- System: human WM266.4 melanoma cells with a BRAF V600 mutation
- Knock-down reagent: single siRNA against human genes, 25 nM
- Duration: 96 h
- Challenge: vemurafenib 300 nM (about IC25), given 48 h after transfection for 48 h
- Read-out: 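Medium lactate read by absorbance over DAPI-counted nuclei; ratio with versus without vemurafenib, set against non-targeting siRNA, averaged over 2 replicates; cell number also recorded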
- Scale: lactate per cell, drug vs no drug: higher = less drug-induced drop in lactate per cell
- Active means: 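a duplex is active when its lactate-per-cell ratio with versus without drug falls under 0.55, i.e. 2 SD below non-targeting; a gene is confirmed if 2 or more of 4 duplexes pass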

With KTI12 (KTI12 chromatin associated homolog) #1, what was measured?
lactate per cell, drug vs no drug: 0.69; Call: inactive

For KTI12 (KTI12 chromatin associated homolog) #2, what was measured?
lactate per cell, drug vs no drug: 0.46; Call: active

What did the screen give for KTI12 (KTI12 chromatin associated homolog) #3?
lactate per cell, drug vs no drug: 0.56; Call: inactive

For KTI12 (KTI12 chromatin associated homolog) #4, what does the deposit list?
lactate per cell, drug vs no drug: 0.56; Call: inactive

With BCCIP (BRCA2 and CDKN1A interacting protein) #1, what was measured?
lactate per cell, drug vs no drug: 0.64; Call: inactive

How did the screen score BCCIP (BRCA2 and CDKN1A interacting protein) #2?
lactate per cell, drug vs no drug: 0.49; Call: active

How did the screen score BCCIP (BRCA2 and CDKN1A interacting protein) #3?
lactate per cell, drug vs no drug: 0.61; Call: inactive

With BCCIP (BRCA2 and CDKN1A interacting protein) #4, what does the deposit list?
lactate per cell, drug vs no drug: 0.57; Call: inactive

Which result is listed for H2BC14 (H2B clustered histone 14) #1?
lactate per cell, drug vs no drug: 0.31; Call: active

Which result is listed for H2BC14 (H2B clustered histone 14) #2?
lactate per cell, drug vs no drug: 0.84; Call: inactive

For H2BC14 (H2B clustered histone 14) #3, what does the deposit list?
lactate per cell, drug vs no drug: 0.76; Call: inactive

How did the screen score H2BC14 (H2B clustered histone 14) #4?
lactate per cell, drug vs no drug: 0.6; Call: inactive

What is on record for NES (nestin) #1?
lactate per cell, drug vs no drug: 1.23; Call: inactive

With NES (nestin) #2, what was measured?
lactate per cell, drug vs no drug: 0.41; Call: active

With NES (nestin) #3, what does the deposit list?
lactate per cell, drug vs no drug: 0.68; Call: inactive

With NES (nestin) #4, how do the results read?
lactate per cell, drug vs no drug: 0.58; Call: inactive

What is on record for GOT1L1 (glutamic-oxaloacetic transaminase 1 like 1) #1?
lactate per cell, drug vs no drug: 0.48; Call: active

With GOT1L1 (glutamic-oxaloacetic transaminase 1 like 1) #2, what does the deposit list?
lactate per cell, drug vs no drug: 0.56; Call: inactive

How did the screen score GOT1L1 (glutamic-oxaloacetic transaminase 1 like 1) #3?
lactate per cell, drug vs no drug: 0.48; Call: active

For GOT1L1 (glutamic-oxaloacetic transaminase 1 like 1) #4, what was measured?
lactate per cell, drug vs no drug: 0.46; Call: active

For PAPSS2 (3'-phosphoadenosine 5'-phosphosulfate synthase 2) #1, what was measured?
lactate per cell, drug vs no drug: 0.6; Call: inactive

What did the screen give for PAPSS2 (3'-phosphoadenosine 5'-phosphosulfate synthase 2) #2?
lactate per cell, drug vs no drug: 0.58; Call: inactive

For PAPSS2 (3'-phosphoadenosine 5'-phosphosulfate synthase 2) #3, what does the deposit list?
lactate per cell, drug vs no drug: 0.64; Call: inactive

For PAPSS2 (3'-phosphoadenosine 5'-phosphosulfate synthase 2) #4, what does the deposit list?
lactate per cell, drug vs no drug: 0.51; Call: active

What did the screen give for ELMO2 (engulfment and cell motility 2) #1?
lactate per cell, drug vs no drug: 0.54; Call: active

For ELMO2 (engulfment and cell motility 2) #2, what does the deposit list?
lactate per cell, drug vs no drug: 0.57; Call: inactive

What is on record for ELMO2 (engulfment and cell motility 2) #3?
lactate per cell, drug vs no drug: 0.5; Call: active

With ELMO2 (engulfment and cell motility 2) #4, what does the deposit list?
lactate per cell, drug vs no drug: 0.62; Call: inactive

Look-ups from the entries so far.
Value of BCCIP (BRCA2 and CDKN1A interacting protein) #3 under “Call”: inactive
GOT1L1 (glutamic-oxaloacetic transaminase 1 like 1) #3, Call = active
Under “lactate per cell, drug vs no drug”, ELMO2 (engulfment and cell motility 2) #4 has 0.62
Under “Call”, PAPSS2 (3'-phosphoadenosine 5'-phosphosulfate synthase 2) #4 is entered as active
